Experimental data reported in patent publication US20150105324A1, “COMPOSITIONS AND METHODS FOR TREATING PTSD AND RELATED DISEASES” (INDIANA UNIVERSITY RESEARCH AND TECHNOLOGY CORPORATION, priority 2012, published 2015).
These are yes or no findings as the source states them, for the method shown. Binding seen in cells or lysates may run through a third protein. Some binding calls cover weakened binding; strength is not graded here.

Protein sequences, listed by entry. Tags and fused reporters are not part of them.
UniProt Q9D3A8: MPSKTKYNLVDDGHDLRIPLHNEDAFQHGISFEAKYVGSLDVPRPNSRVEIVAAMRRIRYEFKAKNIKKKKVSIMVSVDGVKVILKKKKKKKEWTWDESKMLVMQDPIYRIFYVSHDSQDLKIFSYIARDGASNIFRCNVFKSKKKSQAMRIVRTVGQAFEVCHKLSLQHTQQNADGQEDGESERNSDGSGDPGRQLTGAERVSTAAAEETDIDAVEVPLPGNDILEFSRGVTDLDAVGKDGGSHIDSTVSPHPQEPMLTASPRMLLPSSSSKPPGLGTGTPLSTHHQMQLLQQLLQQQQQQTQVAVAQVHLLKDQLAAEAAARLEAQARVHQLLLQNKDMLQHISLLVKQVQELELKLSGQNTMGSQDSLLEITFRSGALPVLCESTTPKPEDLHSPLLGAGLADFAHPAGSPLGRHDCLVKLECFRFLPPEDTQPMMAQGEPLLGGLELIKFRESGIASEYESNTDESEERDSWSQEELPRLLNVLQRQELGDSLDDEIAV
UniProt Q9Z0J4: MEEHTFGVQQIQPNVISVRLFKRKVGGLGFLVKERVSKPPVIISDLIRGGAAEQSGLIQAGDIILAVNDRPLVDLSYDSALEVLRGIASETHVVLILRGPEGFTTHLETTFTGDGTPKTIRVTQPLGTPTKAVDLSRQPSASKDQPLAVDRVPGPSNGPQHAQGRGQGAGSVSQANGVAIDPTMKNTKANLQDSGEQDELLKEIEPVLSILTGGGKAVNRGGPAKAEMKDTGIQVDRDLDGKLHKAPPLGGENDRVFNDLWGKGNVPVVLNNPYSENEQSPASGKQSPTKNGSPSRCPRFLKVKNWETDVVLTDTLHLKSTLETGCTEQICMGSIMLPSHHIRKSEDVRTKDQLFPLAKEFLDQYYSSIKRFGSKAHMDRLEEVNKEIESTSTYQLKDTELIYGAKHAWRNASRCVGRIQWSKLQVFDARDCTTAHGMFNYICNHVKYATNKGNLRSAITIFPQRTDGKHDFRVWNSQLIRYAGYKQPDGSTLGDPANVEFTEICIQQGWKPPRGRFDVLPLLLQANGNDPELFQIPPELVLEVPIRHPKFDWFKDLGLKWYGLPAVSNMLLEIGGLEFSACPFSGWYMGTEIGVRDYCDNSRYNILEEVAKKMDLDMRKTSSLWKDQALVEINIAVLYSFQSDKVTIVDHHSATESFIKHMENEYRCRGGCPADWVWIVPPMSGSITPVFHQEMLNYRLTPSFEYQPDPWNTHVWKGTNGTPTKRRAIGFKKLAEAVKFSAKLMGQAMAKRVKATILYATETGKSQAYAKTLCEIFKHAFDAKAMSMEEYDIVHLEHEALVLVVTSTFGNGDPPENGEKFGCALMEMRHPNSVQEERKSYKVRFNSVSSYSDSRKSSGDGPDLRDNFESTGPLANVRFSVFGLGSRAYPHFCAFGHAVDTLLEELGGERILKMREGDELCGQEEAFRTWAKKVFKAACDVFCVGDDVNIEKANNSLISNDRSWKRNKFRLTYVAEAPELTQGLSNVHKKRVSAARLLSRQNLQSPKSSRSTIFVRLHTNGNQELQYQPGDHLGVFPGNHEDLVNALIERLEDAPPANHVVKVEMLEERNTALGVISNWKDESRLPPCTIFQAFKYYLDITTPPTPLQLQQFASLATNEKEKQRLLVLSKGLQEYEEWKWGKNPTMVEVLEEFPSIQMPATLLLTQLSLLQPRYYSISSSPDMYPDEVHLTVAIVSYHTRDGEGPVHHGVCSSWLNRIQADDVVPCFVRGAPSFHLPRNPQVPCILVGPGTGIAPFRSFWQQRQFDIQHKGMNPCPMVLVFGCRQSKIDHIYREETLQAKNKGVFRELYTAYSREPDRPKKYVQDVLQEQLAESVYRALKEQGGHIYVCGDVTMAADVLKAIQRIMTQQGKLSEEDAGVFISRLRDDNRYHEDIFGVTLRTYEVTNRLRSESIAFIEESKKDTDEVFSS

Molecular target: CAPON (carboxy-terminal PDZ ligand of nNOS), endogenous, mouse ischemic cortex (mouse) (UniProt Q9D3A8)
Test: co-immunoprecipitation from ischemic mouse cortex

- binding: binds
Substance: nNOS (endogenous, mouse cortex) (from UniProt Q9Z0J4 1-1429) (enzyme)
